{"source": "patent US4963563A", "about": "“6-substituted-1,2,3,4-tetrahydroisoquinolines” (Abbott Laboratories, priority 1989, dated 1990)", "note": "Counter-ions that a name gives are not always drawn.", "data": [{"test_system": "alpha-2-receptor", "test": "Radioligand binding, alpha-2 adrenoceptor ([3H]-rauwolscine, rat cerebral cortices)", "details": "ratio of Ki at alpha-1 to Ki at alpha-2", "values": [{"smiles": "COc1ccc2c(c1)CCN(CCCc1cccs1)C2.Cl", "note": "[Example 2, 1,2,3,4-Tetrahydro-6-methoxy-N-3-(2-thienyl)propylisoquinoline hydrochloride]", "Alpha-2 Selectivity Ki α1 /Ki α2": 35}, {"smiles": "COc1ccc2c(c1)CCN(CCCc1cccc(F)c1)C2.Cl", "note": "[Example 5, 1,2,3,4-Tetrahydro-6-methoxy-N-3-(m-fluorophenyl)propyl isoquinoline hydrochloride]", "Alpha-2 Selectivity Ki α1 /Ki α2": 45}, {"smiles": "COc1ccc2c(c1)CCN(CCCc1ccco1)C2.Cl", "note": "[Example 6, 1,2,3,4-Tetrahydro-6-methoxy-N-3-(2-furyl)propylisoquinoline hydrochloride]", "Alpha-2 Selectivity Ki α1 /Ki α2": 69}, {"smiles": "COc1ccc2c(c1)CCN(CCCc1ccccc1)C2.Cl", "note": "[Example 7, 1,2,3,4-Tetrahydro-6-methoxy-N-(3-phenylpropyl)isoquinoline hydrochloride]", "Alpha-2 Selectivity Ki α1 /Ki α2": 37}, {"smiles": "COc1cccc(CCCN2CCc3cc(OC)ccc3C2)c1.Cl", "note": "[Example 8, 1,2,3,4-Tetrahydro-6-methoxy-N-3-(3-methoxyphenyl)propyl isoquinoline hydrochloride]", "Alpha-2 Selectivity Ki α1 /Ki α2": 16}, {"smiles": "Cc1ccc2c(c1)CCN(CCCc1ccccc1)C2", "note": "[Example 13, 1,2,3,4-Tetrahydro-6-methyl-N-(3-(phenylpropylisoquinoline Hydrochloride]", "Alpha-2 Selectivity Ki α1 /Ki α2": 20}]}]}
